Test results published in PubChem BioAssay AID192 (DTP/NCI, 2004).
The list is a part of this screen's results and no random one: it is rich in T/C values a quarter to a half above the control, in often repeated tests (any T/C) and in doses without a T/C. Other doses and runs of a compound stand elsewhere. T/C: endpoint of the treated group in % of that of the vehicle group. Some doses have a count of surviving animals in place of a T/C: the source files T/C as zero there, which appears to mark a toxic dose or a test without result, not a measured value. Some doses without a T/C left all or most animals alive at the check, yet need not have been tolerated: the source hardly ever lists a survival T/C far under the control, and the zero likely stands for such cases as well. Counts of survivors are from the toxicity check (mostly the fifth day) where no day follows; animals may have died later. Schedules are NCI's codes, read here as Q, the interval in days (D) or hours (H), X, the number of doses. Some doses were run more than once; their values stand side by side, smallest first. Additions like (4×) give the number of equal values in this list. Where survival is the endpoint, the PubChem record calls one and a half times the control and up active, and a quarter to a half above the control has no call in these data; cut-offs in other NCI protocols can differ. Some T/C values carry the count of animals alive at the toxicity check (mostly the fifth day); where none is given, no animal had died by that day.

Tested on: BDF1 mice, B16 melanoma ip, median survival T/C
Assay: NCI In Vivo Anticancer Drug Screen. Data for tumor model B16 Melanoma (intraperitoneal) in B6D2F1 (BDF1) mice
Details: T/C endpoint: median survival time, higher T/C = longer survival
Outline: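 Compounds were tested in mice carrying transplantable tumors. Survival or tumor size was recorded, and each value is the treated-group measurement (T) divided by that of the vehicle-treated control group (C).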

[1] = dose: 100.0 mg/kg/injection, schedule: Q01DX009 (ip), vehicle: saline
[2] = dose: 20.0 mg/kg/injection, schedule: Q01DX009 (ip), vehicle: saline with Tween-80
[3] = dose: 100.0 mg/kg/injection, schedule: Q01DX009 (ip), vehicle: saline with Tween-80
[4] = dose: 200.0 mg/kg/injection, schedule: Q01DX009 (ip), vehicle: saline with Tween-80
[5] = dose: 20.0 mg/kg/injection, schedule: Q01DX009 (ip), vehicle: saline
[6] = dose: 50.0 mg/kg/injection, schedule: Q01DX009 (ip), vehicle: saline
[7] = dose: 200.0 mg/kg/injection, schedule: Q01DX009 (ip), vehicle: saline
[8] = dose: 100.0 mg/kg/injection, schedule: Q01DX009 (ip), vehicle: Klucel (hydroxypropylcellulose) (HPC)
[9] = dose: 200.0 mg/kg/injection, schedule: Q01DX009 (ip), vehicle: Klucel (hydroxypropylcellulose) (HPC)
[10] = dose: 400.0 mg/kg/injection, schedule: Q01DX009 (ip), vehicle: Klucel (hydroxypropylcellulose) (HPC)
[11] = dose: 400.0 mg/kg/injection, schedule: Q01DX009 (ip), vehicle: saline with Tween-80
[12] = dose: 12.5 mg/kg/injection, schedule: Q01DX009 (ip), vehicle: saline
[13] = dose: 25.0 mg/kg/injection, schedule: Q01DX009 (ip), vehicle: saline
[14] = dose: 25.0 mg/kg/injection, schedule: Q04DX003 (ip), vehicle: saline
[15] = dose: 100.0 mg/kg/injection, schedule: Q04DX003 (ip), vehicle: saline
[16] = dose: 400.0 mg/kg/injection, schedule: Q01DX009 (ip), vehicle: saline

O=C1NC(=O)c2ccccc21 was tested, and the survivor count [1] was 10 of 10.
O=C1C=C(N2CC2)c2ccccc2C1=O was tested, and the survivor count [2] was 4 of 6 and the survivor count (dose: 40.0 mg/kg/injection, schedule: Q01DX009 (ip), vehicle: saline with Tween-80) was 0 of 6.
For N#CC(=C1C=CC(=NO)C=C1)c1ccc(Cl)cc1, the survivor count [3] was 10 of 10 and the survivor count [4] was 10 of 10.
With O=[N+]([O-])c1ccc(C(O)C=C(C(F)(F)F)C(F)(F)F)cc1 (configuration not stated) the survivor count (dose: 50.0 mg/kg/injection, schedule: Q01DX009 (ip), vehicle: Klucel (hydroxypropylcellulose) (HPC)) was 8 of 10.
With O=c1[nH]c(=O)n(C2CC(O)C(CO)O2)cc1F (configuration not stated) the T/C (dose: 10.0 mg/kg/injection, schedule: Q01DX009 (ip), vehicle: saline) was 97, 113, 119, 135, 138 % of control, the T/C [5] was 104, 131, 135, 145, 147 % of control and the T/C (dose: 25.0 mg/kg/injection, schedule: Q01DX009 (ip), vehicle: saline with Tween-80) was 130 % of control. For the same molecule, the T/C (dose: 25.0 mg/kg/injection, schedule: Q01DX009 (ip), vehicle: saline, evaluated on day 45) was 107, 119, 123, 128, 138 % of control, the T/C (dose: 25.0 mg/kg/injection, schedule: Q01DX009 (ip), vehicle: saline, evaluated on day 60) was 100, 110 (2×), 111, 113, 114, 115 (2×), 121, 122 (2×), 123, 125, 127, 128, 129, 130, 133 [5 of 6 alive], 136, 137, 140, 141, 153, 156 [5 of 6 alive], 171 % of control and the T/C (dose: 40.0 mg/kg/injection, schedule: Q01DX009 (ip), vehicle: saline) was 118, 143, 145, 150 % of control. For the same molecule, the T/C (dose: 50.0 mg/kg/injection, schedule: Q01DX009 (ip), vehicle: saline, evaluated on day 45) was 112, 116, 126, 133, 148 % of control, the T/C (dose: 50.0 mg/kg/injection, schedule: Q01DX009 (ip), vehicle: saline, evaluated on day 60) was 92, 97, 104, 107, 115 [5 of 6 alive], 121, 123 (3×), 129, 132, 133 [4 of 6 alive], 135, 136 (3×), 140, 141, 145, 146 (2×), 147, 165, 166 % of control [4 of 6 alive] and the survivor count [6] was 10 of 10. The T/C (dose: 60.0 mg/kg/injection, schedule: Q01DX009 (ip), vehicle: saline) was 127 and 141 % of control, the T/C (dose: 80.0 mg/kg/injection, schedule: Q01DX009 (ip), vehicle: saline) was 88, 139, 142, 145 % of control and the T/C [3] was 145 % of control. The T/C (dose: 100.0 mg/kg/injection, schedule: Q01DX009 (ip), vehicle: saline, evaluated on day 45) was 114, 125, 128, 148, 150 % of control, the T/C (dose: 100.0 mg/kg/injection, schedule: Q01DX009 (ip), vehicle: saline, evaluated on day 60) was 93, 97 (3×), 119, 126 [5 of 6 alive], 129, 131 (2×), 134, 141 (2×), 145, 150, 153, 158, 162, 178 % of control and the survivor count [1] was 10 of 10 and 6 of 6. For the same molecule, the survivor count [4] was 6 of 6, the T/C (dose: 200.0 mg/kg/injection, schedule: Q01DX009 (ip), vehicle: saline, evaluated on day 45) was 100 and 112 % of control and the T/C (dose: 200.0 mg/kg/injection, schedule: Q01DX009 (ip), vehicle: saline, evaluated on day 60) was 88 [5 of 6 alive], 89, 105 (2×), 111, 115, 125 % of control. For the same molecule, the survivor count [7] was 5 of 6, 10 of 10, 6 of 6 (2×).
With Cc1c(Cl)c(Cl)c(Cl)c(Cl)c1Cl the survivor count [8] was 9 of 10, the survivor count [9] was 10 of 10 and the survivor count [10] was 10 of 10.
O=C1OC(COCC#Cc2ccccc2)CN1c1ccccc1 (configuration not stated) was tested, and the survivor count [8] was 10 of 10.
C(=C\c1ccncc1)/c1ccncc1 was tested, and the T/C [8] was 130 % of control, the T/C [9] was 135 % of control and the T/C [10] was 131 % of control.
In the case of CNC(C)CC1CCCCC1 (configuration not stated), the survivor count [6] is reported as 9 of 10.
OCC(O)COCC#Cc1ccccc1 (configuration not stated) was tested, and the survivor count (dose: 12.5 mg/kg/injection, schedule: Q01DX009 (ip), vehicle: Klucel (hydroxypropylcellulose) (HPC)) was 10 of 10, the survivor count (dose: 25.0 mg/kg/injection, schedule: Q01DX009 (ip), vehicle: Klucel (hydroxypropylcellulose) (HPC)) was 10 of 10 and the survivor count [8] was 10 of 10.
In the case of CCCCCCCC(N)=O, the survivor count [11] is reported as 10 of 10.
With COc1ccc(NC(=O)Nc2ccccc2F)cc1 the survivor count [10] was 6 of 6.
Cc1cc([NH-])c([NH-])cc1C.[Cl][Pt+2][Cl] was tested, and the T/C (dose: 5.0 mg/kg/injection, schedule: Q01DX009 (ip), vehicle: saline with Tween-80) was 134 % of control and the survivor count [2] was 9 of 10.
O=C(OCc1ccccc1)C(=O)OCc1ccccc1 was tested, and the T/C [4] was 134 % of control, the survivor count [11] was 5 of 10 and the survivor count (dose: 400.0 mg/kg/injection, schedule: Q04DX003 (ip), vehicle: saline with Tween-80) was 6 of 10.
With OCC#CCOCC(O)CCl (configuration not stated) the survivor count (dose: 200.0 mg/kg/injection, schedule: Q01DX009 (ip), vehicle: water) was 8 of 10.
With ClC[P+](c1ccccc1)(c1ccccc1)c1ccccc1 the survivor count [5] was 0 of 10.
With O=C1CC2(CCCCC2)CO1 the survivor count (dose: 3.12 mg/kg/injection, schedule: Q01DX009 (ip), vehicle: saline) was 10 of 10, the survivor count (dose: 6.25 mg/kg/injection, schedule: Q01DX009 (ip), vehicle: saline) was 9 of 10 and the survivor count [12] was 0 of 10. For the same molecule, the survivor count [13] was 0 of 10 and the survivor count [6] was 0 of 10.
In the case of Nc1nc(=S)c2[nH]c(N=Nc3ccc(S(=O)(=O)O)cc3)nc2[nH]1, the survivor count [14] is reported as 10 of 10, the survivor count (dose: 50.0 mg/kg/injection, schedule: Q04DX003 (ip), vehicle: saline) is reported as 10 of 10 and the survivor count [15] is reported as 4 of 10.
For OCC12COCN1COC2, the T/C [16] was 136 % of control.
For CCOc1ncc([N+](=O)[O-])c(OCC)n1, the T/C [4] was 125 % of control.
In the case of O=C1C(NC(=O)C2CCCCC2)=C(N2CC2)C(=O)C(NC(=O)C2CCCCC2)=C1N1CC1, the survivor count [8] is reported as 10 of 10 and the survivor count [9] is reported as 6 of 10.
For CC[P+](CC)(CC)CCCCI, the T/C [12] was 125 % of control, the T/C [13] was 130 % of control and the T/C [6] was 138 % of control. The survivor count [1] was 0 of 10 and the survivor count [7] was 0 of 10.
For CSCS(=O)C[C@H](CO)NC(=O)/C=C/c1c(C)[nH]c(=O)[nH]c1=O (some centres not stated), the survivor count (dose: 0.13 mg/kg/injection, schedule: Q01DX009 (ip), vehicle: Klucel (hydroxypropylcellulose) (HPC)) was 10 of 10, the survivor count (dose: 0.25 mg/kg/injection, schedule: Q01DX009 (ip), vehicle: carboxymethylcellulose (CMC)) was 10 of 10 and the survivor count (dose: 0.5 mg/kg/injection, schedule: Q01DX009 (ip), vehicle: carboxymethylcellulose (CMC)) was 8 of 10. The survivor count (dose: 1.0 mg/kg/injection, schedule: Q01DX009 (ip), vehicle: carboxymethylcellulose (CMC)) was 9 of 10, the survivor count (dose: 1.2 mg/kg/injection, schedule: Q01DX009 (ip), vehicle: water) was 2 of 10 and the survivor count (dose: 2.0 mg/kg/injection, schedule: Q01DX009 (ip), vehicle: carboxymethylcellulose (CMC)) was 8 of 10. The survivor count (dose: 2.86 mg/kg/injection, schedule: Q04DX003 (ip), vehicle: saline) was 6 of 8 and the survivor count (dose: 4.08 mg/kg/injection, schedule: Q04DX003 (ip), vehicle: saline) was 7 of 8.
With COc1cccc2c1C(=O)c1c(O)c3c(c(O)c1C2=O)CC(O)(/C(C)=N/NC(=O)CCCCC(=O)N/N=C(\C)C1(O)Cc2c(O)c4c(c(O)c2C(OC2CC(N)C(O)C(C)O2)C1)C(=O)c1c(OC)cccc1C4=O)CC3OC1CC(N)C(O)C(C)O1 (configuration not stated) the T/C (dose: 0.75 mg/kg/injection, schedule: Q01DX009 (ip), vehicle: water) was 144 % of control and the survivor count (dose: 12.0 mg/kg/injection, schedule: Q01DX009 (ip), vehicle: water) was 10 of 10.
With COc1cc(C(=O)Nc2ccc(N(C)C)cc2)cc(OC)c1OC the T/C [14] was 125 % of control and the T/C [15] was 136 % of control.
CN(C)CCSC(=O)N1c2ccccc2C(C)(C)c2ccccc21 was tested, and the survivor count [1] was 9 of 10, the survivor count [7] was 0 of 10 and the survivor count [16] was 0 of 10.
